Results as given in US20120135973A1, “METHOD FOR TREATING CHRONIC PAIN” (SOUTHERN ILLINOIS UNIVERSITY EDWARDSVILLE, priority 2010, published 2012).
For at least one compound, name, drawing or mass did not settle the structure.

Columns and labels:
[1] = known second order rate constant, in parentheses; cited from earlier work
[2] = Inhibition of peroxynitrite-mediated oxidation of aryl boronic acids (PN decomposition activity); assay type: biochemical

O=c1c2ccccc2[se]n1-c1ccccc1 [Ebselen]
known k [1]: 2e+06 M⁻¹ s⁻¹ | % Inhibition PNB ([2]; 4-nitrophenylboronic acid, equimolar (9.5×10^−7 moles) boronic acid, PNDC and peroxynitrite, phosphate buffer pH 7.2, 1 min, triplicate): 51.7 ± 1.1% | Estimated k ([2]; second order rate constant estimated with Ebselen as benchmark): 1.7e+06 M⁻¹ s⁻¹
